Experimental data reported in US20070208043A1, “Use of Serum Amyloid A Gene in Diagnosis and Treatment of Glaucoma and Identification of Anti-Glaucoma Agents” (ALCON, INC., priority 2003, published 2007).

Tested on: SAA induced IL-8 secretion in TM cells
Experiment: Inhibition of SAA induced IL-8 secretion in TM cells (IL-8 in media by ELISA)
Type: cell-based
Experimental: FIG. 11. Effect of MAP p38 kinase inhibitors on induction of IL-8 by SAA treatment (1 μg/ml) in TM cells. […] IL-8 was measured in the media by ELISA.
FIG. 12. […] NTM650-03, p9 or HL-60 cells were treated in serum-free DMEM for 4 hours with 1 μg/ml SAA and the indicated concentrations of SB202580. IL-8 was measured in the media by ELISA.
One pathway for upregulation of IL-8 is through activation of MAP kinases.

## CC(C)OC(=O)C(C)(C)Oc1ccc(C(=O)c2ccc(Cl)cc2)cc1 [Fenofibrate]
1 μM
  inhibition at 1 µM: 59.9%
10 μM
  inhibition at 10 µM: 52.7%
50 μM
  inhibition at 50 µM: 57.2%
